Assay results as given in PubChem BioAssay AID1259354 (Paczesny and Yang Labs, IUPUI and University of Michigan, 2018).
Several values for one entry are separate records, joined by “and”; a condition that tells them apart may be missing. Identical values can stand only once. Among all 78,000 compounds or so, about 1,800 (2.3%) were called active. The shares of active, inactive and inconclusive entries below differ from those in the screen. Rule as the data show it: active = inhibition above about 30%; inconclusive = mostly about 10% to 28%; inactive = weaker than that.

By UniProt entry, the sequences of proteins in these tests, tags left out. Where a name states a change or a piece, a line headed by the entry shows the natural chain unless it says otherwise.
UniProt Q01638: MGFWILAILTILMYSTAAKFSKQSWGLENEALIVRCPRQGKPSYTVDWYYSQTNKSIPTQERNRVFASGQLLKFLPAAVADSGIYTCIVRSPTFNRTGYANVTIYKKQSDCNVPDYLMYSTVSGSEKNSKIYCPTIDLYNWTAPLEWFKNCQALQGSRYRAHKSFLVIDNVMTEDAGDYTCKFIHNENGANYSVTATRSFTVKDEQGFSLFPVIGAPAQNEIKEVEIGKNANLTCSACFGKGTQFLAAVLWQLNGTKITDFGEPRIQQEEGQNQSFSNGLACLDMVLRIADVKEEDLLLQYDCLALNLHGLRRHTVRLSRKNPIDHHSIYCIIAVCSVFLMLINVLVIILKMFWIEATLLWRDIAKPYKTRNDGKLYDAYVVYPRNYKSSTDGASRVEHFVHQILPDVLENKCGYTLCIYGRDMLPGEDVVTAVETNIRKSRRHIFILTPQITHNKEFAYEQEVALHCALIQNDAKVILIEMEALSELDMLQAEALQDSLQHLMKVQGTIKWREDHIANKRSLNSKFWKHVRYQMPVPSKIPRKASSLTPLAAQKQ

biological target: Interleukin-1 receptor-like 1 (Homo sapiens) (UniProt Q01638); experiment: blocks human ST2 binding to IL-33, primary screen, biochemical, AlphaLISA (AID 1259354); details: AlphaLISA ST2-Fc/biotin-IL-33 interaction, 1 h; at 17 µM, stronger effect = higher value

Structure (SMILES) | inhibition
COc1cccc(NC(=O)C(=O)NCc2ccc(C)cc2)c1 | inactive
CC(=O)N1c2c(cc(Br)cc2S(=O)(=O)Nc2ccc(C)cc2)CC1C (configuration not stated) | inactive
Cn1ccnc1CN1CCC(CCCc2ccccc2)(C(=O)O)CC1 | inconclusive: 12%
COc1ccccc1/C=C/C1=NC(=C\c2ccc(OC)c(OC)c2OC)/C(=O)O1 | inconclusive: 21%
Cc1cccn2c(=O)c3cc(C(=O)NCc4ccc(F)cc4)sc3nc12 | inconclusive: 14%
NCCc1cccc(-c2cc(NCc3ccccn3)nc3[nH]ccc23)c1 | active: 35%
Cc1cc(C)c(NC(=O)CSc2ccccc2)c(C)c1 | inactive
COc1ccccc1C1NC(=O)NC(C)=C1C(=O)OC(C)C (configuration not stated) | inconclusive: 15%
CCNC(=O)c1cccc(-c2ccc(F)cc2OC)c1 | inconclusive: 17%
Cc1ccnc(NC(c2ccncc2)c2ccc3ccc(C)nc3c2O)c1 (configuration not stated) | inconclusive: 10%
CC(C)c1ccc(C2CC(c3ccc(F)cc3)Nc3nc(N)nn32)cc1 (configuration not stated) | inconclusive: 24%
N#Cc1cccc(NC(=O)N2Cc3[nH]cnc3C[C@H]2c2nc(-c3ccc(Cl)cc3)no2)c1 | inconclusive: 10%
CCOc1ccc2nc(Cl)c(C3CC(c4ccccc4)=NN3S(C)(=O)=O)cc2c1 (configuration not stated) | inconclusive: 16%
O=C(Nc1cccc([N+](=O)[O-])c1)c1cc(S(=O)(=O)N2CCCC2)c(Cl)cc1Cl | inconclusive: 10%
c1cncc(CN2CC[C@H](c3nc4ccccc4s3)C2)c1 | inactive
O=C1C(=C(c2ccccc2)c2ccccc2)C(=O)c2ccccc21 | active: 39%
COc1ccc(C(=O)Nc2cc(N3CCCS3(=O)=O)ccc2OC)cc1 | inactive
CCC(=O)N1CCc2cc(Br)cc(S(=O)(=O)CCC(=O)NC(C)CC)c21 (configuration not stated) | inactive
C=CCc1ccccc1OCC(N)=O | inconclusive: 10%
Cc1cccc(C(=O)Nc2sc(C)c(C)c2C(=O)O)c1 | inconclusive: 12%
c1csc(-c2cnc3ccccc3n2)c1 | inconclusive: 28%
CN(Cc1n[nH]c2c1CCC2)S(=O)(=O)NCc1ccccc1 | inconclusive: 15%
CN(C)c1ccc(CN2CCCCCC2)cc1 | inconclusive: 18%
O=C1/C(=C/c2ccccc2O)N=C2CCCCCN12 | active: 39%

Structure (SMILES) | inhibition
CN(C)c1ccc(C2C3=C(CCCC3=O)Nc3nc(SCc4ccccc4F)[nH]c(=O)c32)cc1 (configuration not stated) | inconclusive: 11% and inconclusive: 10%
CC1CCC(C(=O)NC(C(=O)NC2CCCC(C)C2C)C(C)C)CC1 (configuration not stated) | inconclusive: 12%
Cc1cc(OCC(=O)n2cnnc2N)cc(C)c1Cl | inconclusive: 17%
Cc1nc(N2CCN(c3ccccn3)CC2)c2c(C)c(C(=O)O)sc2n1 | inconclusive: 19%
Cc1ccc(C2CC(c3ccc(F)cc3)=NN2c2ccccc2)o1 (configuration not stated) | active: 40%
Cc1ccsc1[C@@H]1CCN(Cc2c(CO)cnc(C)c2O)C[C@H]1O | inconclusive: 12%
CN1CC2(CCN(C(=O)c3cccc4cc[nH]c34)C2)OC1=O (configuration not stated) | inconclusive: 15%
CCn1cncc1Cn1ccnc1-c1ccc(O)c(OC)c1 | inconclusive: 19%
Cc1cc(-c2c(-c3ccccc3)ncn2CC(C)Oc2cccnc2)n[nH]1 (configuration not stated) | inconclusive: 23%
COc1ccc2nc(N=C(N)NC(=O)Cc3ccc(Cl)cc3)nc(C)c2c1 | active: 35%
Cc1cc(C2CCC2)nc(-c2ccc(O)cc2)n1 | inconclusive: 12%
O=C(O)c1ccc(Oc2ccc([N+](=O)[O-])cc2)cc1 | inconclusive: 12%
N#Cc1ccc(CNC(=O)[C@@H]2Cc3nc[nH]c3CN2Cc2ccc(C(F)(F)F)cc2)cc1 | inconclusive: 12%
O=C(O)c1ccc(NC2=CC(=NS(=O)(=O)c3ccccc3)c3ccccc3C2=O)cc1 | active: 48%
Cc1nnc(-c2cccc(-c3cc(NCc4ccccn4)nc4[nH]ccc34)c2)o1 | active: 35%
Cc1ccc(CN2CCN(C3CCCCCC3)CC2)cc1 | inactive
O=C(c1ccc([N+](=O)[O-])cc1)N1N=C(C(F)(F)F)CC1(O)c1ccncc1 (configuration not stated) | inconclusive: 10%
COc1cc(/C=C2/SC(=Nc3ccccc3)NC2=O)cc(OC)c1 | inconclusive: 25%
CCCC(=O)N(c1ccc(Br)cc1)C1C=CS(=O)(=O)C1 (configuration not stated) | inactive
Cc1cc(C)c(-c2csc(NC(=O)CN3C(=O)CCC3=O)n2)c(C)c1 | inactive
O=C1CO[C@H]2CN(C3CCCCC3)C[C@H]2N1Cc1ccccc1 | inconclusive: 13%
COc1ccc(OC)c(/C=C2\SC(c3ccccc3)=NC2=O)c1 | active: 51%
CS(=O)(=O)N1CCN(c2ccc([N+](=O)[O-])c(Sc3nnnn3-c3ccccc3)c2)CC1 | inconclusive: 15%
